From patent publication EP0518769B1, “Ethanolaminebenzoate derivative, process for their preparation and pharmaceutical compositions containing them” (ADIR ET COMPAGNIE, priority 1991, dated 1992)

Test system: Rats SDCD mâles de 52 semaines
Experiment: Chronic per os treatment (14 days, twice daily) in the male SDCD rat aged 52 weeks
Format: in vivo
Excerpt: Les essais sont réalisés sur des rats qui présentent des anomalies pondérales associées à un hyperinsulisme et une hyperglycéridémie.
Il est recherché : • d'une part l'effet d'un traitement prolongé du produit de l'exemple 1 et de substances de référence sur ces anomalies, et • d'autre part, la consommation du glucose par le tissu adipeux est mesuré à l'état basal et en présence d'insuline (10⁻⁹ M).
On utilise des rats identiques à ceux de l'étude du traitement aigu, (cf. ci-dessus le paragraphe A- 2.1), à savoir des rats SDCD mâles agés de 52 semaines.
9 jours avant le début de l'expérimentation (J₋₉), sont constitués des lots de rats par randomisation stratifiée sur le poids.
5 jours avant le début de l'expérimentation (J₋₅), les rats sont conditionnés par administration d'une solution de gomme.
Le premier jour de l'expérimentation (J₁), les produits à tester sont administrés à différentes doses aux rats 2 fois par jour. Plus précisémment, les produits sont administrés en suspension dans la gomme entre 9 et 10 heures et 16-17 heures pendant 14 jours. Une pesée quotidienne des animaux traités est effectuée.
Le 15ème jour, les rats (à jeun depuis 18 heures) sont sacrifiés par décapitation. Le sang est recueilli directement dans une cupule. Un aliquote (50 µl) est transféré dans 500 µl d'acétate d'uranyl pour dosage de la glycémie. Un aliquote de 3 ml est transféré dans un tube contenant une solution d'héparine (30 µl pour 1 ml de sang total) et centrifugé pour séparer le plasma. Un autre aliquote de 300 µl est transféré dans un tube contenant 15 µl d'une solution d'EDTA/NaF pour dosage des lactates.
Le tissu adipeux épididymaire est prélevé pour étude métabolique immédiatement après sacrifice.
Pour chaque animal, deux fragments de tissu épididymaire droit et gauche sont émincés aux ciseaux et répartis dans 6 fioles d'incubation. Trois de ces fioles contenant 500 µl de milieu et les autres 500 µl de milieu additionné d'insuline de porc (10⁻⁹ M), la production de CO₂ est donc mesurée en triplicate pour chacun des rats de chaque groupe.

SMILES: COC(CNCCOC(=O)c1ccc(CCNC(=O)CC2c3ccccc3-c3ccccc32)cc1)c1cccc(C(F)(F)F)c1 (single isomer, unassigned) [Exemple 1, Isomère lévogyre du chlorhydratede para-[2-(α-fluorén-9-ylacétylamino) éthyl] benzoatede 2-[(β-méthoxy β-métatrifluorométhylphényl) éthylamino] éthyle]
- Sérotonine cérébrale (0,5 mg/kg×2 per os): non modifiée
- Sérotonine cérébrale (1 mg/kg×2 per os): non modifiée
- Sérotonine cérébrale (2,5 mg/kg×2 per os): non modifiée

SMILES: CC(Cc1cccc(C(F)(F)F)c1)NCCOC(=O)c1ccccc1 (stereo not drawn) [Benfluorex, 1-(3-trifluorométhylphényl)-2-(β-benzoyloxyéthyl)aminopropane, reference compound]
- Sérotonine cérébrale (1 mg/kg×2 per os): Diminuée
- Sérotonine cérébrale (2,5 mg/kg×2 per os): Diminuée
